Measured data: PubChem BioAssay AID504804 (Drosophila RNAi Screening Center, 2011)
In all, the deposit lists about 19,000 reagents; below is an unselected part of those with a known target gene and a result. Over the whole deposit, 47 (0.25%) got an active call. 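Signals are raw, not normalised; exact z-scores behind calls not deposited; actives needed confirmation, so some wells reaching 2 SD are inactive.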 Unmarked entries are inactive. The numbers tell different reagents against one gene apart. Reagent sequences are not shown.

- Purpose: 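dsRNAs that improve Kc cell survival under doxorubicin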 (primary screen)
- Cell system: Drosophila Kc cells
- Reagents: long dsRNA against Drosophila genes, 0.5 µg dsRNA per well
- Duration: 96 h (48 h knock-down, then 48 h drug)
- Challenge: doxorubicin 5 µg/ml for 48 h, added 48 h after dsRNA
- Measurement: 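Luminescent ATP counts per replicate, not normalised, reflecting viable cells after 48 h dsRNA knock-down followed by 48 h of 5 µg/ml doxorubicin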
- Scale: raw ATP luminescence: higher = more viable cells, protection from doxorubicin
- Hit rule: 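Active when both duplicate wells lie at least 2 SD above the plate mean and protection is confirmed by rescreening and independent dsRNAs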

The first 2 records as a preview:
CG6576
- raw ATP luminescence, replicate 1: 95453
- raw ATP luminescence, replicate 2: 96817

CG14635
- raw ATP luminescence, replicate 1: 61790
- raw ATP luminescence, replicate 2: 35110

Results, from the start:
CG6576
- raw ATP luminescence, replicate 1: 95453
- raw ATP luminescence, replicate 2: 96817

CG14635
- raw ATP luminescence, replicate 1: 61790
- raw ATP luminescence, replicate 2: 35110

CG43737
- raw ATP luminescence, replicate 1: 3.24e5
- raw ATP luminescence, replicate 2: 2.82e5

tst
- raw ATP luminescence, replicate 1: 31007
- raw ATP luminescence, replicate 2: 29087

CG14589
- raw ATP luminescence, replicate 1: 42327
- raw ATP luminescence, replicate 2: 43700

mub
- raw ATP luminescence, replicate 1: 20247
- raw ATP luminescence, replicate 2: 21773

Rassf
- raw ATP luminescence, replicate 1: 41640
- raw ATP luminescence, replicate 2: 38507

CG7208
- raw ATP luminescence, replicate 1: 56090
- raw ATP luminescence, replicate 2: 65450

Tpst #1
- raw ATP luminescence, replicate 1: 2.28e5
- raw ATP luminescence, replicate 2: 2.18e5

Tpst #2
- raw ATP luminescence, replicate 1: 3.58e5
- raw ATP luminescence, replicate 2: 3.57e5

Tpst #3
- raw ATP luminescence, replicate 1: 3.82e5
- raw ATP luminescence, replicate 2: 3.60e5

Tpst #4
- raw ATP luminescence, replicate 1: 78120
- raw ATP luminescence, replicate 2: 97130

CG9641
- raw ATP luminescence, replicate 1: 1.24e5
- raw ATP luminescence, replicate 2: 70533

CG14036
- raw ATP luminescence, replicate 1: 26047
- raw ATP luminescence, replicate 2: 31420

Sbat
- raw ATP luminescence, replicate 1: 2.97e5
- raw ATP luminescence, replicate 2: 2.79e5

CG9205
- raw ATP luminescence, replicate 1: 61067
- raw ATP luminescence, replicate 2: 71197

CG15317
- raw ATP luminescence, replicate 1: 3.64e5
- raw ATP luminescence, replicate 2: 3.41e5

CG31321
- raw ATP luminescence, replicate 1: 2.44e5
- raw ATP luminescence, replicate 2: 1.97e5

CG7304
- raw ATP luminescence, replicate 1: 83373
- raw ATP luminescence, replicate 2: 63997
